Test results: article PMC4388270
Substitutions are numbered along the chain they refer to. Names may count otherwise. These are yes or no findings as the source states them, for the method shown.

Legend:
[1] = molecular target: FnIII-3,4 region of integrin β4 (residues 1457–1666), wild type (human) (UniProt P16144); test: condition: 1.5 to 48.6 mg ml^-1 (data extrapolated to infinite dilution); SAXS; wild-type FnIII-3,4 in solution at 1.5, 3.0, 6.1, 12.2, 24.3 and 48.6 mg ml^-1, 283 K, 20 mM sodium phosphate pH 7.5, 150 mM NaCl, 5% glycerol, 3 mM DTT; data extrapolated to infinite dilution; mass from the excluded volume of DAMMIF models against the mass from the sequence; both purified
[2] = molecular target: FnIII-3,4 mutant L1497C/N1598C/C1608, labelled with MTSL (human) (UniProt P16144); test: SAXS; MTSL-labelled FnIII-3,4 mutants in solution, 20 mM sodium phosphate pH 7.5, 150 mM NaCl, 5% glycerol; measured and processed as the wild type, detector distance 3.1 m; both purified
[3] = molecular target: FnIII-3,4 mutant R1504C/N1598C/C1608, labelled with MTSL (human) (UniProt P16144); test: as above
[4] = molecular target: FnIII-3,4 mutant T1472C/S1590C/C1608, labelled with MTSL (human) (UniProt P16144); test: as above
[5] = molecular target: FnIII-3,4 mutant T1472C/C1608/S1626C, labelled with MTSL (human) (UniProt P16144); test: as above
[6] = molecular target: FnIII-3,4 mutant L1497C/C1608/S1626C, labelled with MTSL (human) (UniProt P16144); test: as above
[7] = molecular target: FnIII-3,4 mutant R1504C/C1608/S1626C, labelled with MTSL (human) (UniProt P16144); test: as above
[8] = molecular target: FnIII-3,4 mutant T1472C/C1608/R1630C, labelled with MTSL (human) (UniProt P16144); test: as above
[9] = molecular target: FnIII-3,4 mutant R1504C/C1608/R1630C, labelled with MTSL (human) (UniProt P16144); test: as above

B1: FnIII-3,4 region of integrin β4 (residues 1457–1666), wild type (domain or fragment, UniProt P16144-2 1457-1666)
chain: GSHMVPDTPTRLVFSALGPTSLRVSWQEPRCERPLQGYSVEYQLLNGGELHRLNIPNPAQTSVVVEDLLPNHSYVFRVRAQSQEGWGREREGVITIESQVHPQSPLCPLPGSAFTLSTPSAPGPLVFTALSPDSLQLSWERPRRPNGDIVGYLVTCEMAQGGGPATAFRVDGDSPESRLTVPGLSENVPYKFKVQARTTEGFGPEREGIITIES
In the case of B1, the binding [1] is reported as “no binding”.

B2: FnIII-3,4 mutant L1497C/N1598C/C1608, labelled with MTSL (domain or fragment, UniProt P16144-2 1457-1666)
chain: B1 chain with C31S, L45C, C107A, N146C
modifications: MTSL nitroxide spin label on Cys 1497, 1598 and 1608
B2 was tested, and the binding [2] was “no binding”.

B3: FnIII-3,4 mutant R1504C/N1598C/C1608, labelled with MTSL (domain or fragment, UniProt P16144-2 1457-1666)
chain: B1 chain with C31S, R52C, C107A, N146C
modifications: MTSL nitroxide spin label on Cys 1504, 1598 and 1608
B3 was tested, and the binding [3] was “no binding”.

B4: FnIII-3,4 mutant T1472C/S1590C/C1608, labelled with MTSL (domain or fragment, UniProt P16144-2 1457-1666)
chain: B1 chain with T20C, C31S, C107A, S138C
modifications: MTSL nitroxide spin label on Cys 1472, 1590 and 1608
For B4, the binding [4] was “no binding”.

B5: FnIII-3,4 mutant T1472C/C1608/S1626C, labelled with MTSL (domain or fragment, UniProt P16144-2 1457-1666)
chain: B1 chain with T20C, C31S, C107A, S174C
modifications: MTSL nitroxide spin label on Cys 1472, 1608 and 1626
With B5 the binding [5] was “no binding”.

B6: FnIII-3,4 mutant L1497C/C1608/S1626C, labelled with MTSL (domain or fragment, UniProt P16144-2 1457-1666)
chain: B1 chain with C31S, L45C, C107A, S174C
modifications: MTSL nitroxide spin label on Cys 1497, 1608 and 1626
For B6, the binding [6] was “no binding”.

B7: FnIII-3,4 mutant R1504C/C1608/S1626C, labelled with MTSL (domain or fragment, UniProt P16144-2 1457-1666)
chain: B1 chain with C31S, R52C, C107A, S174C
modifications: MTSL nitroxide spin label on Cys 1504, 1608 and 1626
With B7 the binding [7] was “no binding”.

B8: FnIII-3,4 mutant T1472C/C1608/R1630C, labelled with MTSL (domain or fragment, UniProt P16144-2 1457-1666)
chain: B1 chain with T20C, C31S, C107A, R178C
modifications: MTSL nitroxide spin label on Cys 1472, 1608 and 1630
With B8 the binding [8] was “no binding”.

B9: FnIII-3,4 mutant R1504C/C1608/R1630C, labelled with MTSL (domain or fragment, UniProt P16144-2 1457-1666)
chain: B1 chain with C31S, R52C, C107A, R178C
modifications: MTSL nitroxide spin label on Cys 1504, 1608 and 1630
B9 was tested, and the binding [9] was “no binding”.
